# Results published in patent publication US7985766B2, “Combination of anticholineric and β mimetics for the treatment of respiratory diseases” (MEDA Pharma GmbH & Co. KG, priority 2004, dated 2011).
# Tested on: guinea pigs
# Procedure: After cannulating the trachea, animals were respired using a small animal respiratory pump with a constant tidal volume and a rate of 60 breaths/min. The lung resistance was measured by using a rodent lung function recording system (MUMED, London, UK). Compounds were given intravenously (i.v.) via a catheter placed in the right jugular vein. After surgery, the animals were allowed to stabilize. 10 min before acetylcholine (10 μg/kg, i.v.) administration, the guinea pigs were disconnected from the respirator and either vehicle (10 mg/lactose) or different amounts of drugs (blended with lactose) were administered intratracheally (i.th.) using a syringe. The trachea was then reconnected to the respirator and changes in pulmonary mechanics were recorded. Acetylcholine (10 μg/kg) was injected intravenously in every 10 minutes for 60 min.
compound,measurement,setting,value
COc1ccc(CC(C)NCC(O)c2ccc(O)c(NC=O)c2)cc1 (centres unmarked) [formoterol],attenuation of bronchoconstriction induced by i.v. acetylcholine,"highest dose of 10 μg/kg, i.th.",almost completely attenuated
same,dilation of the airways (bronchodilatory effect),"medium dose of 3 mg/kg, i.th. (so in the source)",about 20%
